# Laboratory results from PubChem BioAssay AID539 (SRMLSC, 2006).
# Some of the results follow. Some results for these compounds are left out of this collection, so the calls shown say nothing about other tests.
# Tested on: phosphomevalonate kinase (Streptococcus pneumoniae D39)
# Experiment: phosphomevalonate kinase enzyme inhibition – biochemical, mevalonate pathway, pilot trial included, primary screen (AID 539);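 also: 0% = full reaction with DMSO carrier and 100% = background rate without enzyme reaction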
# Details: purified PMK, PK/LDH-coupled NADH absorbance 340 nm; measured here: pilot screen replicates; at 10 µM; stronger effect = higher value
row,Compound,inhibition
1,O=C(OC1CN2CCC1CC2)C(CO)(c1ccccc1)c1ccccc1 (stereo unspecified),6%
